# Measurements published in the supplement of paper PMC8728848.
# Some of the results follow.
# B1: SP15308F-bth-333-19-333 (Bacteroides thetaiotaomicron) (protein)
# chain: SCNNEWESEQYVQMVSFKAPVNAQGVTPIYIRYKPEGKVTYQLPLIVSGSTMNSKDLNVHVGLDLDTLDVLNVEHFGSRKELFFKPLENKYYEFPETVQIPAGECTSLLPIDFALKDLDQVDKWVLPLAIQSNDPSHNYQANPRKFYRRAMLRISPFNDYSGQYSATAYKVYFKGNEKEAIVPEYHTSYVIDDKTIFFYAGLIDIDRLDRKYYKIKFEFTEEKIDLQTRKLKISSDNEDINLVVKGQPSYTVEEEMDATRPYLKHIYVTINNLEYEFTDYTSVPGYPLEYVVKGSLTMERKINTQIPDEDQAIEW
# How the values were obtained:
# Experiment in all cases: glycan array binding signal (z-score within array); higher = stronger binding
# Details in all cases: glycan notation: IUPAC condensed, linker removed
# [1] = biological target: Gal(b1-3)GlcNAc(b1-2)Man(a1-3)[Gal(b1-3)GlcNAc(b1-2)Man(a1-6)]Man(b1-4)GlcNAc(b1-4)[Fuc(a1-6)]GlcNAc
# In short: (§1)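 Arrays were curated from the Consortium for Functional Glycomics database, 3228 in total, and kept only where the protein sequence was available. Binding is expressed as a within-array Z-score. This score was averaged across arrays of the same protein sequence at different concentrations or buffers and across linkers, and negative values can be read as non-binding.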
# [2] = biological target: Gal(b1-3)GlcNAc(b1-2)Man(a1-3)[GlcNAc(b1-4)][Gal(b1-3)GlcNAc(b1-2)Man(a1-6)]Man(b1-4)GlcNAc(b1-4)GlcNAc
# In short: as §1
# [3] = biological target: Gal(b1-3)GlcNAc(b1-2)[Gal(b1-3)GlcNAc(b1-6)]Man(a1-6)[Gal(b1-3)GlcNAc(b1-2)Man(a1-3)]Man(b1-4)GlcNAc(b1-4)GlcNAc
# In short: as §1
# [4] = biological target: Gal(b1-3)GlcNAc(b1-3)Gal(b1-3)GlcNAc
# In short: as §1
# [5] = biological target: Gal(b1-3)GlcNAc(b1-3)Gal(b1-4)Glc
# In short: as §1
# [6] = biological target: Gal(b1-3)GlcNAc(b1-3)Gal(b1-4)GlcNAc
# In short: as §1
# [7] = biological target: Gal(b1-3)GlcNAc(b1-3)Gal(b1-4)GlcNAc(b1-2)Man(a1-3)[Gal(b1-3)GlcNAc(b1-3)Gal(b1-4)GlcNAc(b1-2)Man(a1-6)]Man(b1-4)GlcNAc(b1-4)GlcNAc
# In short: as §1
# [8] = biological target: Gal(b1-3)GlcNAc(b1-3)Gal(b1-4)GlcNAc(b1-2)[Gal(b1-3)GlcNAc(b1-3)Gal(b1-4)GlcNAc(b1-6)]Man(a1-6)[Gal(b1-3)GlcNAc(b1-3)Gal(b1-4)GlcNAc(b1-2)Man(a1-3)]Man(b1-4)GlcNAc(b1-4)[Fuc(a1-6)]GlcNAc
# In short: as §1
# [9] = biological target: Gal(b1-3)GlcNAc(b1-3)Gal(b1-4)GlcNAc(b1-3)Gal(b1-4)GlcNAc(b1-2)[Gal(b1-3)GlcNAc(b1-3)Gal(b1-4)GlcNAc(b1-3)Gal(b1-4)GlcNAc(b1-6)]Man(a1-6)[Gal(b1-3)GlcNAc(b1-3)Gal(b1-4)GlcNAc(b1-3)Gal(b1-4)GlcNAc(b1-2)Man(a1-3)]Man(b1-4)GlcNAc(b1-4)[Fuc(a1-6)]GlcNAc
# In short: as §1
# [10] = biological target: Gal(b1-3)GlcNAc(b1-3)Gal(b1-4)GlcNAc(b1-6)[Gal(b1-3)GlcNAc(b1-3)]Gal(b1-4)Glc
# In short: as §1
# [11] = biological target: Gal(b1-3)GlcNAc(b1-3)Gal(b1-4)[Fuc(a1-3)]GlcNAc
# In short: as §1
# [12] = biological target: Gal(b1-3)GlcNAc(b1-3)Gal(b1-4)[Fuc(a1-3)]GlcNAc(b1-6)[Gal(b1-3)GlcNAc(b1-3)]Gal(b1-4)Glc
# In short: as §1
# [13] = biological target: Gal(b1-3)GlcNAc(b1-3)GalNAc
# In short: as §1
# [14] = biological target: Gal(b1-3)GlcNAc(b1-6)Gal(b1-4)GlcNAc
# In short: as §1
# [15] = biological target: Gal(b1-3)GlcNAc(b1-6)GalNAc
# In short: as §1
# [16] = biological target: Gal(b1-3)GlcNAc(b1-6)[Gal(b1-3)]GalNAc
# In short: as §1
# Gal(b1-3)GlcNAc6S = biological target: Gal(b1-3)GlcNAc6S
# In short: as §1
# [17] = biological target: Gal(b1-3)[Fuc(a1-4)]GlcNAc
# In short: as §1
# [18] = biological target: Gal(b1-3)[Fuc(a1-4)]GlcNAc(b1-2)Man
# In short: as §1
# [19] = biological target: Gal(b1-3)[Fuc(a1-4)]GlcNAc(b1-2)Man(a1-3)[Gal(b1-3)[Fuc(a1-4)]GlcNAc(b1-2)Man(a1-6)]Man(b1-4)GlcNAc(b1-4)[Fuc(a1-6)]GlcNAc
# In short: as §1
# [20] = biological target: Gal(b1-3)[Fuc(a1-4)]GlcNAc(b1-3)Gal(b1-3)[Fuc(a1-4)]GlcNAc
# In short: as §1
# [21] = biological target: Gal(b1-3)[Fuc(a1-4)]GlcNAc(b1-3)Gal(b1-4)[Fuc(a1-3)]GlcNAc
# In short: as §1
# [22] = biological target: Gal(b1-3)[Fuc(a1-4)]GlcNAc(b1-6)GalNAc
# In short: as §1
# [23] = biological target: Gal(b1-3)[GlcNAc(b1-6)]GalNAc
# In short: as §1
# [24] = biological target: Gal(b1-3)[Neu5Ac(a2-6)]GalNAc
# In short: as §1
# [25] = biological target: Gal(b1-3)[Neu5Ac(a2-6)]GlcNAc(b1-4)Gal(b1-4)Glc
# In short: as §1
# [26] = biological target: Gal(b1-3)[Neu5Ac(b2-6)]GalNAc
# In short: as §1
# Gal(b1-4)Gal = biological target: Gal(b1-4)Gal
# In short: as §1
# [27] = biological target: Gal(b1-4)GalNAc(a1-3)[Fuc(a1-2)]Gal(b1-4)GlcNAc
# In short: as §1
# [28] = biological target: Gal(b1-4)GalNAc(b1-3)[Fuc(a1-2)]Gal(b1-4)GlcNAc
# In short: as §1
# Gal(b1-4)Glc = biological target: Gal(b1-4)Glc
# In short: as §1
# Gal(b1-4)Glc6S = biological target: Gal(b1-4)Glc6S
# In short: as §1
# Gal(b1-4)GlcNAc = biological target: Gal(b1-4)GlcNAc
# In short: as §1
# [29] = biological target: Gal(b1-4)GlcNAc(a1-6)Gal(b1-4)GlcNAc
# In short: as §1
# Gal(b1-4)GlcNAc(b1-2)Man = biological target: Gal(b1-4)GlcNAc(b1-2)Man
# In short: as §1
# [30] = biological target: Gal(b1-4)GlcNAc(b1-2)Man(a1-3)Man(b1-4)GlcNAc(b1-4)GlcNAc
# In short: as §1
# [31] = biological target: Gal(b1-4)GlcNAc(b1-2)Man(a1-3)[Gal(b1-4)GlcNAc(b1-2)Man(a1-6)]Man(b1-4)GlcNAc(b1-4)GlcNAc
# In short: as §1
# [32] = biological target: Gal(b1-4)GlcNAc(b1-2)Man(a1-3)[Gal(b1-4)GlcNAc(b1-2)Man(a1-6)]Man(b1-4)GlcNAc(b1-4)[Fuc(a1-6)]GlcNAc
# In short: as §1
# [33] = biological target: Gal(b1-4)GlcNAc(b1-2)Man(a1-3)[Gal(b1-4)GlcNAc(b1-2)Man(a1-6)][Gal(b1-4)GlcNAc(b1-4)]Man(b1-4)GlcNAc(b1-4)[Fuc(a1-6)]GlcNAc
# In short: as §1
# [34] = biological target: Gal(b1-4)GlcNAc(b1-2)Man(a1-3)[Gal(b1-4)GlcNAc(b1-2)Man(a1-6)][GlcNAc(b1-4)]Man(b1-4)GlcNAc(b1-4)[Fuc(a1-6)]GlcNAc
# In short: as §1
# [35] = biological target: Gal(b1-4)GlcNAc(b1-2)Man(a1-3)[GlcNAc(b1-2)Man(a1-6)]Man(b1-4)GlcNAc(b1-4)GlcNAc
# In short: as §1
# [36] = biological target: Gal(b1-4)GlcNAc(b1-2)Man(a1-3)[GlcNAc(b1-4)][Gal(b1-4)GlcNAc(b1-2)Man(a1-6)]Man(b1-4)GlcNAc(b1-4)GlcNAc
# In short: as §1
# [37] = biological target: Gal(b1-4)GlcNAc(b1-2)Man(a1-3)[Man(a1-6)]Man(b1-4)GlcNAc(b1-4)GlcNAc
# In short: as §1
# [38] = biological target: Gal(b1-4)GlcNAc(b1-2)Man(a1-6)Man(b1-4)GlcNAc(b1-4)GlcNAc
# In short: as §1
# [39] = biological target: Gal(b1-4)GlcNAc(b1-2)Man(a1-6)[GlcNAc(b1-2)Man(a1-3)]Man(b1-4)GlcNAc(b1-4)GlcNAc
# In short: as §1
binder,measurement,setting,value
B1,glycan array binding signal (z-score),[1],2.33
same,glycan array binding signal (z-score),[2],1.43
same,glycan array binding signal (z-score),[3],0.375
same,glycan array binding signal (z-score),[4],-0.043
same,glycan array binding signal (z-score),[5],-0.746
same,glycan array binding signal (z-score),[6],-0.871
same,glycan array binding signal (z-score),[7],-0.467
same,glycan array binding signal (z-score),[8],0.703
same,glycan array binding signal (z-score),[9],-0.335
same,glycan array binding signal (z-score),[10],0.657
same,glycan array binding signal (z-score),[11],-0.483
same,glycan array binding signal (z-score),[12],-0.893
same,glycan array binding signal (z-score),[13],-1.26
same,glycan array binding signal (z-score),[14],0.49
same,glycan array binding signal (z-score),[15],-0.949
same,glycan array binding signal (z-score),[16],0.874
same,glycan array binding signal (z-score),Gal(b1-3)GlcNAc6S,-0.484
same,glycan array binding signal (z-score),[17],0.524
same,glycan array binding signal (z-score),[18],0.606
same,glycan array binding signal (z-score),[19],1.26
same,glycan array binding signal (z-score),[20],-0.559
same,glycan array binding signal (z-score),[21],0.291
same,glycan array binding signal (z-score),[22],0.191
same,glycan array binding signal (z-score),[23],1.44
same,glycan array binding signal (z-score),[24],-0.545
same,glycan array binding signal (z-score),[25],0.401
same,glycan array binding signal (z-score),[26],-0.816
same,glycan array binding signal (z-score),Gal(b1-4)Gal,-1.04
same,glycan array binding signal (z-score),[27],-0.102
same,glycan array binding signal (z-score),[28],0.863
same,glycan array binding signal (z-score),Gal(b1-4)Glc,0.374
same,glycan array binding signal (z-score),Gal(b1-4)Glc6S,-0.415
same,glycan array binding signal (z-score),Gal(b1-4)GlcNAc,-0.324
same,glycan array binding signal (z-score),[29],0.206
same,glycan array binding signal (z-score),Gal(b1-4)GlcNAc(b1-2)Man,2.88
same,glycan array binding signal (z-score),[30],-0.47
same,glycan array binding signal (z-score),[31],0.388
same,glycan array binding signal (z-score),[32],1.81
same,glycan array binding signal (z-score),[33],-0.791
same,glycan array binding signal (z-score),[34],-0.07
same,glycan array binding signal (z-score),[35],-1.22
same,glycan array binding signal (z-score),[36],-0.682
same,glycan array binding signal (z-score),[37],-0.719
same,glycan array binding signal (z-score),[38],-1.02
same,glycan array binding signal (z-score),[39],-0.963
